Assay results reported in paper doi:10.1101/2022.10.21.513235.
These are yes or no findings as the source states them, for the method shown. Binding seen in cells or lysates may run through a third protein. Some binding calls cover weakened binding; strength is not graded here.

Chains of the proteins cited; added tags and fusions are not shown. Lines headed by an entry give the natural chain unless they say otherwise; changes in a name come on top. A line that says so, or that is headed by a name, gives the form on record, which may keep a tag or linker.
UniProt Q9UH17: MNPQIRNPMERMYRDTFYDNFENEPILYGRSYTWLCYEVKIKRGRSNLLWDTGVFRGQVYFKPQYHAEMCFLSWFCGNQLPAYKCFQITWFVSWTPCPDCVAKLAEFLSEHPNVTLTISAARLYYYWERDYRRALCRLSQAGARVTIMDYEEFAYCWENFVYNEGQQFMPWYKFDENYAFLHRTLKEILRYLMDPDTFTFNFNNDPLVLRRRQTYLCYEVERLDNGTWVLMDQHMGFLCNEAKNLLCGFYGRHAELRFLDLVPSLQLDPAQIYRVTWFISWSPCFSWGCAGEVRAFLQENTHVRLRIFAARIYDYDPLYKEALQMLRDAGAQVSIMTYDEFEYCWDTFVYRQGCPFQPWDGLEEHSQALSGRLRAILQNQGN
TDRD3 isoform 1 (Q9H7E2-3, form named): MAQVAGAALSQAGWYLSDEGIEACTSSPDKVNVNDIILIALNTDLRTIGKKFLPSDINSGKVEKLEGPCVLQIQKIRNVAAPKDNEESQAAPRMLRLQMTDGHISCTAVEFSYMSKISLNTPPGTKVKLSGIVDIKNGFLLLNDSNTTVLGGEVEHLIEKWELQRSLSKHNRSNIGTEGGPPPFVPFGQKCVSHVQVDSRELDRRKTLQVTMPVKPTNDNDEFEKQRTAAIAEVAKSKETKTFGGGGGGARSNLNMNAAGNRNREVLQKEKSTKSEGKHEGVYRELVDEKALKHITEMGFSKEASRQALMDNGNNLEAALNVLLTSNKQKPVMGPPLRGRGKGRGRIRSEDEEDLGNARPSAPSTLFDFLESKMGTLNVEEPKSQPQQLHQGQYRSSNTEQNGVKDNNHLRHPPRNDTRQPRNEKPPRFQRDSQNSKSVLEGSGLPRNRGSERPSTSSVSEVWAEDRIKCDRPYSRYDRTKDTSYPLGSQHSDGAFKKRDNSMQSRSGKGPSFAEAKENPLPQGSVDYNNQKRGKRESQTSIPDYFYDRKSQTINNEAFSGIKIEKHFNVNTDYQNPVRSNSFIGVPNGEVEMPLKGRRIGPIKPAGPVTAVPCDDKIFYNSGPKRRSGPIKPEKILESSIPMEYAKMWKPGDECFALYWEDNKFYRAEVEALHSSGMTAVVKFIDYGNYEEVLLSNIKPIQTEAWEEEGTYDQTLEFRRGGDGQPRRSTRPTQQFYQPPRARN
TDRD3 isoform 3 (Q9H7E2-2, form named): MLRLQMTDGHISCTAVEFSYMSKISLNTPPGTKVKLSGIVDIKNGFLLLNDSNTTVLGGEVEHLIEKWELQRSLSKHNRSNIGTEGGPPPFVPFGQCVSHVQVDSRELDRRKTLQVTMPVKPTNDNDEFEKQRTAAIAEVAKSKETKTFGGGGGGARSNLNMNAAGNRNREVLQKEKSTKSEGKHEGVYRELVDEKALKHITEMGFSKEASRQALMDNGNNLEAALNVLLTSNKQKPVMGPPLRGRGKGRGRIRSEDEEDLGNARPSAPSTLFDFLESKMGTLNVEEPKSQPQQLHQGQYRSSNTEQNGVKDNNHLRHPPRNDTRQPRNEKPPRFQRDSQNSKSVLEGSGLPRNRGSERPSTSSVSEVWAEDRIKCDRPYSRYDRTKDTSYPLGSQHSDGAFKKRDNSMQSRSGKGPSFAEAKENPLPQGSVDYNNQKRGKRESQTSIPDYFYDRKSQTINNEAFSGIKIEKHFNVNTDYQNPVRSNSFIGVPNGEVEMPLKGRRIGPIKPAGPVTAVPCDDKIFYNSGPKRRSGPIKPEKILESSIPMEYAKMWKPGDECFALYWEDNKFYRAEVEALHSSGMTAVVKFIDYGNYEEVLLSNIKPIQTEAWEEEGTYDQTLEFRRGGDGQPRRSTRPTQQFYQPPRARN

Target: APOBEC3B (apolipoprotein B mRNA-editing enzyme catalytic polypeptide-like 3B) (human (in T-47D cells)) (UniProt Q9UH17)
Experiment: co-IP

Substance	binding
TDRD3 isoform 1 (from UniProt Q9H7E2-3 1-744)	binds
TDRD3 isoform 3 (from UniProt Q9H7E2-2 1-650)	no binding
